For this assay, the system named is CTV-1. The experiment in a line: 50% cell death in three-day growth. Format: cell-based. To be noted: Homo sapiens, 72 h; three-day growth of CTV-1; read-out: final concentration that led to 50% cell death. The method, then: Valproic acid (VPA) (Sigma-Aldrich, MO) at 10^−2 M in dimethyl sulfoxide (DMSO), was stocked at −20° C. Fresh dilution of chemicals were prepared before the experiments.
CTV-1, Molt-3, THP-1, MCR-5, J5, LPC and Hep3B cell lines were obtained from the American Type Culture Collection (Rockville, Md.). CTV-1 and Molt-3 and were grown in RPMI 1640 medium supplemented with 10% fetal bovine serum (FBS); THP-1, MCR5, J5, LPC and Hep3B were grown in Dulbecco's modified Eagle's medium (DMEM, Gibco, Grand Island, N.Y.) supplemented with 10% FBS. All were grown at 37° C. in a humidified atmosphere containing 5% CO2.

As for `O=C(CCCCCCC(=O)Nc1ccccc1)NO` [SAHA, Suberoylanilide hydroxamic acid], the IC50 stood at 1000 nM.

The values are drawn from patent publication US10668093B2, “Method for prolonging the over survival of a cancer patient” (National Yang-Ming University, priority 2015, dated 2020).
